Data as given in PubChem BioAssay AID2685 (National Center for Advancing Translational Sciences (NCATS), 2010).
This is one part of the list. The main result of the screen is listed elsewhere. These columns were measured beside it and carry no call. Compounds called inactive in the main read-out are mostly missing here. Potencies come from curve fits of mixed quality, noted in brackets.

Assay: qHTS Assay for Lipid Storage Modulators in Drosophila S3 Cells;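 on cell number change: cells counted by Cell Tracker Red CMTPX staining in the red channel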
Conditions: BODIPY lipid droplet fluorescence, 18-24 h; for cell number change: measured here: cell count max response, cells fed with added oleic acid
Outline: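 Laser-scanning cytometry quantifies lipid droplet accumulation (500–530 nm total intensity; droplet/cell object ratio) in oleic acid-fed (400 uM added) Drosophila S3 cells treated with a concentration series. 20 uM Triacsin C defined 100% inhibition.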

[1] = measured here: lipid fluorescence (Fed channel) AC50, cells fed with added oleic acid
[2] = measured here: cell number channel AC50, cells fed with added oleic acid

SMILES: Nc1ncnc(N2CCc3ccccc32)c1[N+](=O)[O-]
- AC50 [1]: 0.731 µM [falling, single point]

SMILES: COc1cccc(OC)c1C(=O)Nc1ccccc1C(=O)N1CCCCCC1
- cell number change: 1.88%
- AC50 [1]: 0.355 µM [rising, full curve, poor fit]

SMILES: CC(C)(C)c1ccc(OCCNC(=O)c2ncn[nH]2)cc1
- cell number change: -30.1%
- AC50 [2]: 11.6 µM [falling, partial curve]
- AC50 [1]: 29.1 µM [rising, single point]

SMILES: CCOC(=O)C1(Cc2cccc(OC)c2)CCCN(C(=O)c2cc(CC(C)C)[nH]n2)C1 (stereo not drawn)
- cell number change: 2.65%
- AC50 [1]: 29.1 µM [falling, single point]

SMILES: COc1ccccc1CN(C(=O)c1ccco1)C(C(=O)NC1CCCC1)c1ccncc1 (stereo not drawn)
- cell number change: 6.35%

SMILES: CCc1nnc(NC(=O)CCc2ccc(C)o2)s1
- cell number change: 72.1%
- AC50 [2]: 13 µM [rising, partial curve]

SMILES: CCC(C(=O)NC1CCCCC1)n1c(SCc2ccc(F)cc2)nc2ccncc21 (stereo not drawn)
- cell number change: 16.9%
- AC50 [1]: 0.13 µM [falling, full curve, poor fit]

SMILES: COc1ccc(N2CCN(c3nc4c(C)cccn4c(=O)c3C=C(C#N)C#N)CC2)cc1
- cell number change: -22.2%

SMILES: CCc1nc(SCC(=O)c2ccc(Cl)s2)c2oc3ccccc3c2n1
- cell number change: -19.2%

SMILES: COc1ccc(OCC(O)CNC(C)c2ccccc2)cc1 (stereo not drawn)
- cell number change: 13.1%

SMILES: Cc1ccc(OCCOCCN2CCCCC2)c([N+](=O)[O-])c1
- cell number change: -1.19%
- AC50 [2]: 5.17 µM [falling, partial curve]
- AC50 [1]: 0.0146 µM [falling, full curve, poor fit]

SMILES: CCCCOc1ccc(-c2[nH]ncc2C=O)cc1
- cell number change: 5.88%
- AC50 [2]: 0.82 µM [falling, full curve]
- AC50 [1]: 0.82 µM [falling, full curve]

SMILES: Cc1ccccc1N1C(=O)N(c2cccc(C(F)(F)F)c2)C2CS(=O)(=O)CC21 (stereo not drawn)
- cell number change: -0.471%
- AC50 [1]: 0.92 µM [falling, full curve, poor fit]

SMILES: CCCCC12CN3CCN(CC(C3)/C1=N\NC(=O)c1ccccc1N)C2
- cell number change: 1.85%
- AC50 [1]: 6.51 µM [rising, single point]

SMILES: O=C(NCCc1nnc2ccc(SCC(=O)N3CCCC3)nn12)c1ccccc1
- cell number change: -12.3%
- AC50 [2]: 3.66 µM [rising, partial curve]

SMILES: COc1cc(NC(=O)CN2C(=O)NC(C)(c3ccccc3)C2=O)c(C)cc1[N+](=O)[O-] (stereo not drawn)
- cell number change: -0.435%
- AC50 [1]: 0.651 µM [rising, single point]

SMILES: Cc1ccc(Nc2nc(N)nc(CN3CCN(C(=O)c4ccco4)CC3)n2)cc1Cl
- cell number change: -32.9%
- AC50 [2]: 5.8 µM [falling, full curve, poor fit]

SMILES: Cc1cccc(Nc2nc(NCCCN3CCOCC3)nc(N)c2[N+](=O)[O-])c1
- cell number change: 24.1%
- AC50 [1]: 0.103 µM [rising, full curve, poor fit]

SMILES: O=C(OCCc1cc2ccccc2c(=O)o1)c1cccc(Br)c1
- AC50 [1]: 0.184 µM [falling, full curve]

SMILES: Cc1c(C)n2c(SCC(=O)N3CCCC3)nnc2[nH]c1=O
- cell number change: -50.7%
- AC50 [2]: 29.1 µM [falling, single point]
- AC50 [1]: 1.03 µM [falling, full curve]

SMILES: COc1cc(/C=C/c2nc3ccccc3c(=O)[nH]2)cc(Cl)c1O
- cell number change: 0.806%
- AC50 [1]: 0.184 µM [falling, partial curve]

SMILES: CCC1c2ccc(C)n2CCN1C(=O)Nc1ccccc1OC (stereo not drawn)
- cell number change: 38.2%
- AC50 [2]: 23.1 µM [rising, single point]

SMILES: FC(F)C(F)(F)c1cc(-c2ccccc2)n[nH]1
- cell number change: 3.52%

SMILES: Cc1ccccc1N1CCN(C2CCCN(C(=O)c3cc(C(C)C)[nH]n3)C2)CC1 (stereo not drawn)
- cell number change: 14.4%
- AC50 [2]: 0.058 µM [rising, full curve, poor fit]
- AC50 [1]: 29.1 µM [rising, single point]

SMILES: Cc1ccc(OCc2cc(C(=O)NC(C)Cc3cccc(C)n3)no2)cn1 (stereo not drawn)
- cell number change: 4.53%
- AC50 [1]: 2.91 µM [rising, single point]

SMILES: CC(C)(C)OC(=O)[C@H](Cc1ccccc1)NC(=O)c1nc[nH]c1C(=O)NC1CCNCC1
- cell number change: -10%

SMILES: CC(C)COc1cccc(C(=O)NNC(=O)C2COc3ccccc3O2)c1 (stereo not drawn)
- AC50 [1]: 16.4 µM [rising, partial curve]

SMILES: CCCC(=O)NC(=S)Nc1sc2c(c1C(N)=O)CCC2
- cell number change: 31.8%
- AC50 [2]: 5.8 µM [rising, partial curve, poor fit]
- AC50 [1]: 0.58 µM [rising, full curve]

SMILES: CCCCCCn1c(N2CCN(c3ccccc3)CC2)nc2c1c(=O)[nH]c(=O)n2C
- cell number change: -30.5%
- AC50 [2]: 16.4 µM [falling, single point]
- AC50 [1]: 29.1 µM [falling, single point]

SMILES: CCN(CC)c1ccc(NC(=O)c2ccc3c(c2)OCO3)cc1
- cell number change: -34.3%
- AC50 [2]: 20.6 µM [falling, partial curve]

SMILES: Cc1cccc(/N=C/c2c(O)[nH]c3ccccc23)n1
- cell number change: -41.9%
- AC50 [2]: 20.6 µM [falling, single point]
- AC50 [1]: 18.4 µM [falling, single point]

SMILES: Cc1cc(C)c(S(=O)(=O)N2CCN(C(=O)C3CCCO3)CC2)c(C)c1 (stereo not drawn)
- cell number change: -1.82%
- AC50 [1]: 29.1 µM [rising, single point]

SMILES: COc1cccc2cc(CC(=O)c3ccc(C)cc3C)c(=O)oc12
- cell number change: -11.3%

SMILES: Cc1ccc(-c2cc(C(=O)O)n[nH]2)o1
- cell number change: -48.7%
- AC50 [2]: 32.6 µM [falling, partial curve, poor fit]
- AC50 [1]: 29.1 µM [falling, single point]

SMILES: O=C(c1ccco1)N1CCN(C(=O)C2CC(=O)N(c3ccc(Cl)cc3)C2)CC1 (stereo not drawn)
- cell number change: 32.8%
- AC50 [2]: 0.82 µM [rising, full curve, poor fit]

SMILES: Cc1cc(NS(=O)(=O)c2ccc(NC(=O)CSc3nnc(-c4ccco4)n3C)cc2)nc(C)n1
- cell number change: 55.4%
- AC50 [2]: 0.116 µM [rising, full curve, poor fit]
- AC50 [1]: 4.61 µM [falling, partial curve, poor fit]

SMILES: CCOC(=O)/C(=C\c1ccc([N+](=O)[O-])o1)NC(=O)c1ccccc1
- cell number change: 6.71%
- AC50 [1]: 0.00461 µM [falling, full curve, poor fit]

SMILES: Cc1ccc(OCc2nc(-c3cccs3)no2)c([N+](=O)[O-])c1
- AC50 [2]: 0.461 µM [rising, single point]

SMILES: Cn1c(=O)[nH]c(=O)c2c1nc(CN1CCN(c3ccc(F)cc3)CC1)n2CCCc1ccccc1
- cell number change: 2.85%

SMILES: CCOC(=O)Cc1csc(NC(=O)c2c(O)c3ccccc3n(C)c2=O)n1
- cell number change: 2.36%

SMILES: COc1ccc(NC(=O)COC(=O)c2ccc(N3CCCC3=O)cc2)cc1
- cell number change: 13.1%

SMILES: C=CCn1c(SCc2nc(N)nc(N(C)C)n2)nnc1-c1cccnc1
- cell number change: -16.2%
- AC50 [2]: 2.91 µM [falling, single point]

SMILES: Cc1ccc(CS(=O)(=O)CCC(=O)NCCN(C)Cc2ccccc2)cc1
- cell number change: 5.68%

SMILES: Cc1nc(C(=O)Nc2ccccc2)sc1C1(C)CC(c2cccc([N+](=O)[O-])c2)=NO1 (stereo not drawn)
- cell number change: 8%
- AC50 [1]: 29.1 µM [rising, single point]

SMILES: O=C(NNC(=O)C1CCCN(S(=O)(=O)c2ccc3ccccc3c2)C1)C1CC1 (stereo not drawn)
- cell number change: 20.6%
- AC50 [1]: 0.82 µM [rising, partial curve, poor fit]

SMILES: CN(CC(=O)Nc1ccc(F)cc1)C(=O)c1ccncc1
- AC50 [1]: 3.66 µM [falling, partial curve]

SMILES: S=C(N=Nc1ccccc1)NNc1ccccc1
- cell number change: -83%
- AC50 [2]: 13 µM [falling, partial curve]
- AC50 [1]: 13 µM [falling, partial curve]

SMILES: Cc1c(Br)c(C(F)(F)F)nn1CC(=O)NCCCn1ccnc1
- cell number change: -12.2%
- AC50 [1]: 0.0058 µM [falling, full curve, poor fit]

SMILES: O=c1[nH]c(Cc2ccccn2)nc2scc(-c3ccccc3Cl)c12
- cell number change: -1.59%

SMILES: CCn1c(C)nc2cc(S(=O)(=O)C(F)F)ccc21
- cell number change: -7.28%
- AC50 [1]: 29.1 µM [rising, single point]

SMILES: CCCCc1nc2cc(C(=O)N3CCNC(=O)C3CC(=O)OC)ccc2o1 (stereo not drawn)
- cell number change: 29.2%
- AC50 [2]: 2.91 µM [rising, full curve, poor fit]

SMILES: CCC1Nc2ccccc2-c2nnc(SC)nc2O1 (stereo not drawn)
- cell number change: 6.96%
- AC50 [2]: 2.59 µM [falling, single point]
- AC50 [1]: 4.11 µM [falling, single point]

SMILES: O=C(CCl)NC(=O)NC12CC3CC(CC(C3)C1)C2
- cell number change: -28.7%
- AC50 [1]: 2.06 µM [rising, single point]

SMILES: CCCn1nc(C(=O)OCC(=O)Nc2cccc(S(N)(=O)=O)c2)c2ccccc2c1=O
- cell number change: -6.42%

SMILES: Cc1cccc(NC(=S)N/N=C/c2ccc3c(c2)OCO3)c1
- cell number change: -15%
- AC50 [1]: 0.13 µM [falling, full curve, poor fit]

SMILES: COc1nccnc1NS(=O)(=O)c1ccc(NC(=S)NC(=O)c2ccc(F)cc2)cc1
- AC50 [1]: 0.517 µM [rising, partial curve]

SMILES: O=S(=O)(NC1CCSc2ccccc21)c1ccccc1 (stereo not drawn)
- cell number change: 6.31%
- AC50 [1]: 6.51 µM [falling, single point]

SMILES: COc1cc2cc(C(c3nnnn3C3CCCC3)N3CCc4ccccc43)c(=O)[nH]c2cc1OC (stereo not drawn)
- cell number change: -13.3%

SMILES: CCC(C)N(C)C1CCN(C(=S)Nc2cccc(OC)c2)CC1 (stereo not drawn)
- AC50 [1]: 18.4 µM [rising, single point]

SMILES: COc1cc(C(=O)NN(CCC#N)C2=NS(=O)(=O)c3ccccc32)cc(OC)c1OC
- cell number change: -9.62%

SMILES: CCOC(=O)c1c(-c2ccccc2)csc1NC(=O)c1ccc(S(=O)(=O)N2CCOCC2)cc1
- cell number change: 10.3%
- AC50 [2]: 6.51 µM [rising, single point]
- AC50 [1]: 6.51 µM [rising, partial curve]
